Data set [1] relates to RPA (Rfa1-Rfa2-Rfa3) (Schizosaccharomyces pombe). Nature of the data set: EMSA. The following applies: 100 nM DNA; EMSA: CL buffer (composition not given), 32 C 15 min, gels in TAE at 20 C; recombinant protein; protein details: 6xHis N-terminal on Rfa1; label: 5'-TAMRA; single-stranded DNA. (In general: A gel shift assay detects complexes by their altered migration in electrophoresis.)

Chains of the proteins cited; added tags and fusions are not shown. A change or cut given only in a name is not applied to a line headed by its entry. A line that says so, or that is headed by a name, gives the form on record, which may keep a tag or linker.
RPA (Rfa1-Rfa2-Rfa3) (Schizosaccharomyces pombe), one chain, as listed by the source, chain 1 of 3: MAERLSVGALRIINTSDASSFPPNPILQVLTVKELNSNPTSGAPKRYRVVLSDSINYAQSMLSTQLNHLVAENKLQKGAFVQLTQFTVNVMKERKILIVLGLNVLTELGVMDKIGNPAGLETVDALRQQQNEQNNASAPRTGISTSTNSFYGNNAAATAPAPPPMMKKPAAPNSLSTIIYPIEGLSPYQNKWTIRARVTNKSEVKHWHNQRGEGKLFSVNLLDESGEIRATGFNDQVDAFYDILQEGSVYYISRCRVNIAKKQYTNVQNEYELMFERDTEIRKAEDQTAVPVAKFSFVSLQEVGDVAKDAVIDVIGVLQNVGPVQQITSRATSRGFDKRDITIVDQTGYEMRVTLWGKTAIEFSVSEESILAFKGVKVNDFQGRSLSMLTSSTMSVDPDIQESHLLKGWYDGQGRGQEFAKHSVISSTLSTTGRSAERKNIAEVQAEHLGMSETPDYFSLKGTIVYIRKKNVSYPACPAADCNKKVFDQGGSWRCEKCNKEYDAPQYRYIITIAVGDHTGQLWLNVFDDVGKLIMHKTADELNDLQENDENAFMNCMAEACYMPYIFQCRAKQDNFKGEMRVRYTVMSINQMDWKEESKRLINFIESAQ
RPA (Rfa1-Rfa2-Rfa3) (Schizosaccharomyces pombe), one chain, as listed by the source, chain 2 of 3: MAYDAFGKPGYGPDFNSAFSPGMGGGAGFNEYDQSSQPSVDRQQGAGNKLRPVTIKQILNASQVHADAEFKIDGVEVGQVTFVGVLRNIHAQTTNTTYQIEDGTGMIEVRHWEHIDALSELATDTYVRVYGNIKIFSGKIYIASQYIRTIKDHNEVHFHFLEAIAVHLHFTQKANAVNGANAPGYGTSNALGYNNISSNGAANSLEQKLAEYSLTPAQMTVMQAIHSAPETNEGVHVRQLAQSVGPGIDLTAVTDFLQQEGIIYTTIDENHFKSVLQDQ
RPA G78E (Rfa1G78E-Rfa2-Rfa3) (Schizosaccharomyces pombe), one chain, as listed by the source G78E, chain 1 of 3: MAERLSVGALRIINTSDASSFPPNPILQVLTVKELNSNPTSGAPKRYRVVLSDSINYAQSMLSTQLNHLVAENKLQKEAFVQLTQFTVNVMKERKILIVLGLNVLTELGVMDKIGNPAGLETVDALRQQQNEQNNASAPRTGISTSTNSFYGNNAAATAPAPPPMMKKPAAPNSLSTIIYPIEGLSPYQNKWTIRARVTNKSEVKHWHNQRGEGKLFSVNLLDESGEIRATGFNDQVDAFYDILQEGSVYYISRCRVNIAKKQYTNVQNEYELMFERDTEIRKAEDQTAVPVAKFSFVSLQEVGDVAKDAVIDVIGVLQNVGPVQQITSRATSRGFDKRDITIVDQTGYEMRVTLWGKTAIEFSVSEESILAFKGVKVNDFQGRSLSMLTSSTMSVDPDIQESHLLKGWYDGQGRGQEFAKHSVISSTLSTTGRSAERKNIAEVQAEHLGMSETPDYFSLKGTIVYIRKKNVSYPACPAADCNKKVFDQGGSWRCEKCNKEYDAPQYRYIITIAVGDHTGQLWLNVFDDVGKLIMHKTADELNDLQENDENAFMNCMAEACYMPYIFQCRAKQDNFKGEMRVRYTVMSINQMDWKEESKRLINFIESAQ
RPA (Rfa1-Rfa2-Rfa3) (Schizosaccharomyces pombe), one chain, as listed by the source, chain 3 of 3: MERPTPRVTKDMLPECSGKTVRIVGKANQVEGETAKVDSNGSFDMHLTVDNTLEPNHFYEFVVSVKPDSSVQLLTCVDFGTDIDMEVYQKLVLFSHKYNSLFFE

Data set [2] concerns RPA G78E (Rfa1G78E-Rfa2-Rfa3) (Schizosaccharomyces pombe). Nature of the data set: EMSA. Conditions: 100 nM DNA; EMSA: CL buffer (composition not given), 32 C 15 min, gels in TAE at 20 C; recombinant protein; protein details: 6xHis N-terminal on Rfa1; label: 5'-TAMRA; single-stranded DNA.

For at least one entry, the source does not settle the construct or the ends of the probe. For some assays here: Weaker means in comparison with the reference protein, sequence or condition of that experiment. For some assays here: At least one verdict rests on a figure or table, not on a statement of the authors.

Consider “TTTTTTTTTTTTTTTTTTTTTTTTTTTTTTTTTTTTTTTTTTTTTTTTTTTTTT [oligo(dT)54]”, for which the figures for the binding result in data set [1] and in data set [2] were “binds” and “binds more weakly”, respectively.

The values above are taken from article PMC5786502.
